# Laboratory results taken from PMC7819943, “Rice protein-binding microarrays: a tool to detect cis-acting elements near promoter regions in rice”.
# Some of the results follow.
# Target: T1, OsSMF1 (Oryza sativa, UniProt Q6ZLB0 1-436)
# T1 sequence: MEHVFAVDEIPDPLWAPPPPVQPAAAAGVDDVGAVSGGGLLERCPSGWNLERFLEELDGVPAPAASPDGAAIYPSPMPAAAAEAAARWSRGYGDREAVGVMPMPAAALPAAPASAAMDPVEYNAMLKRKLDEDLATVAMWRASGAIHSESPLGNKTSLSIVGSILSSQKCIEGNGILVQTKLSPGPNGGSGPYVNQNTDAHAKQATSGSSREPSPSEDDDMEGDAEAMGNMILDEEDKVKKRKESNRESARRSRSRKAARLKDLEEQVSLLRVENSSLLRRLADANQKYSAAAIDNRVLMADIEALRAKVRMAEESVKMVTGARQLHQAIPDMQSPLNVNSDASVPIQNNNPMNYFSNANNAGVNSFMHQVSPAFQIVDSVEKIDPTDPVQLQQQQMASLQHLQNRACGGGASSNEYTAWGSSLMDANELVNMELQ
# Assay: protein-binding microarray (RPBM); PBS, 2% BSA, 51.3 ng/ul salmon testes DNA, 50 uM zinc acetate, 200 nM TF, 25 C, 1 h; high values mean tight binding
# Conditions: protein: recombinant; tags: N-terminal polyhistidine and DsRed monomer fusion (pET32a); chain copies: 2; label: CyDye5-dUTP incorporated in the synthesized complementary strand; 3' TTTTT single-stranded linker to array surface; dsDNA, one strand shown
# Procedure, shortened: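 Per-feature fluorescence intensity (arbitrary units), read on an Axon 4000B scanner, is the binding signal. Transcription factors carrying an N-terminal polyhistidine tag and DsRed fusion were expressed in E. coli BL21-CodonPlus and purified on Ni–NTA. A custom Agilent array, made double-stranded by primer extension with Cy5-dUTP and blocked with 2% BSA, was incubated with 200 nM protein in PBS, 2% BSA, salmon testes DNA and 50 µM zinc acetate at 25 °C for 1 h and then washed.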
row,Sequence,binding signal
1,TCCTCCATCGCCGCCTTCACCGAGTCACCGCCCGTCATCCCGGAGTCACCTAGTGCAG,3380 fluorescence intensity (a.u.)
2,TATCTCAGCCACTGAATCAGTGACGTCCGACACAGTGACACGGAGTCACCTAGTGCAG,4140 fluorescence intensity (a.u.)
3,CGCGCCGACGACGGCCTCCACGTCACGCGCGACGTCCGGCCGGAGTCACCTAGTGCAG,8230 fluorescence intensity (a.u.)
4,GGGGTGTTTAGATTCAGTGGTGTAAAGTTTTAACGTGTCACGGAGTCACCTAGTGCAG,4560 fluorescence intensity (a.u.)
5,ATAAAACCACGTCACTAATCAGTTTGACATATTCACATATCGGAGTCACCTAGTGCAG,9580 fluorescence intensity (a.u.)
6,CTATTGTACCTGCTCTAATGTGCAATGCATCTCCATGAATCGGAGTCACCTAGTGCAG,4170 fluorescence intensity (a.u.)
7,TACTGGTGCAAATGAAGAGTCATCAAGATCCCATGCCATTCGGAGTCACCTAGTGCAG,3180 fluorescence intensity (a.u.)
8,TGCGGCTTGCTAAAACACGTGCCAATGACATGTGGAGCTACGGAGTCACCTAGTGCAG,3920 fluorescence intensity (a.u.)
9,GAACTCAACTCCTCTGATGACAACTTTAATCAGGCAGTGTCGGAGTCACCTAGTGCAG,4730 fluorescence intensity (a.u.)
10,CCATCTTAACAAACCGATGTGGCACATTGTGATTGAATCTCGGAGTCACCTAGTGCAG,4260 fluorescence intensity (a.u.)
11,TCCATCTCCCTCATCACGCCGACGCCGCAGCCTCTCCCCACGGAGTCACCTAGTGCAG,3900 fluorescence intensity (a.u.)
12,ACTGTCTCTCTCTCCTCCTCTCCTCTACTTAACACCAAAGCGGAGTCACCTAGTGCAG,4420 fluorescence intensity (a.u.)
13,AAATTTCGGACTGAAATTTCGAGGTATCGGTGACCTCCGACGGAGTCACCTAGTGCAG,22600 fluorescence intensity (a.u.)
14,CCGGCTGCGTGACTGTGTCTGCGTCGCGTCTCCTCCACTTCGGAGTCACCTAGTGCAG,3160 fluorescence intensity (a.u.)
15,TCCCGCGTGTTGTGCTGTGCTGTGCTGGTACTACTCCTTACGGAGTCACCTAGTGCAG,3680 fluorescence intensity (a.u.)
16,TTAGATTGGATCATGACGCCAATGTTATTGGTGCTATTAGCGGAGTCACCTAGTGCAG,7520 fluorescence intensity (a.u.)
17,ATTGTTGAATGACGCGGAAACGTTTCTTTGCATCATATGGCGGAGTCACCTAGTGCAG,5950 fluorescence intensity (a.u.)
18,GCCTCATGGCCTTTGCTCGGCCTCGCCCTGTCCCACACCGCGGAGTCACCTAGTGCAG,4110 fluorescence intensity (a.u.)
19,GGAGAAAAGCGGAGAAGCCACGTCAAGTCGTCTCCCGCCCCGGAGTCACCTAGTGCAG,15600 fluorescence intensity (a.u.)
20,GAGTATGAAGATTACTAGTGATGCTGAAATTTCTGACATACGGAGTCACCTAGTGCAG,3790 fluorescence intensity (a.u.)
21,ACTACCACTAGGATTGTACACACTGTCATGTCCTGTGCACCGGAGTCACCTAGTGCAG,4380 fluorescence intensity (a.u.)
22,CAAACTTTTGTATATTGTGATGCCAAGTTTTCTCTTGTCGCGGAGTCACCTAGTGCAG,18500 fluorescence intensity (a.u.)
23,AAATTTGGAGAGAGCCAATAATGAAACGGGAGATGACTCACGGAGTCACCTAGTGCAG,5180 fluorescence intensity (a.u.)
24,TACAAGCCACGTCGGTTATAAACCCCACCACCTCCCACTCCGGAGTCACCTAGTGCAG,10000 fluorescence intensity (a.u.)
25,ACGCCCCTGTGGAAAAGGAATGAAGCGAGCGCACAGCGCACGGAGTCACCTAGTGCAG,23100 fluorescence intensity (a.u.)
26,TAAAGCAATGCACTAATGTTGTTTTCCACGTCCATCCGGCCGGAGTCACCTAGTGCAG,3250 fluorescence intensity (a.u.)
27,TCGAGCAAGGCATCGTGACGTCACGCACGCTCTCCCGTAACGGAGTCACCTAGTGCAG,24100 fluorescence intensity (a.u.)

# Not a retest: an excerpt of the list.
row,Sequence,binding signal
22,CAAACTTTTGTATATTGTGATGCCAAGTTTTCTCTTGTCGCGGAGTCACCTAGTGCAG,18500 fluorescence intensity (a.u.)
23,AAATTTGGAGAGAGCCAATAATGAAACGGGAGATGACTCACGGAGTCACCTAGTGCAG,5180 fluorescence intensity (a.u.)

# Further entries.

row,Sequence,binding signal
1,GTTCGTCGGCAAATGGCGGCGCCAGCCTACGTGTCCTCTCCGGAGTCACCTAGTGCAG,12200 fluorescence intensity (a.u.)
2,TCCCAAATCTTTCTTAATAAATATATAAAAGTTTTACGTACGGAGTCACCTAGTGCAG,3280 fluorescence intensity (a.u.)
3,GCAAACGCAGCAGAGTCACGTACGTCACCCGTGGCGCGGTCGGAGTCACCTAGTGCAG,7470 fluorescence intensity (a.u.)
4,TGCAGCGCAACATCAGCTCTGTCACACGTTGTGCTGGGGCCGGAGTCACCTAGTGCAG,4920 fluorescence intensity (a.u.)
5,GCTTGATCCAGATTCCAAGCTACAGTCTCATGGGCCCCTGCGGAGTCACCTAGTGCAG,20500 fluorescence intensity (a.u.)
6,TGGCCAGGTGTTTCATGGTAGTACAGCACGAGTCGACCTGCGGAGTCACCTAGTGCAG,3180 fluorescence intensity (a.u.)
7,AAGCATATCGCGAAGCCGTACAGCCTCTGCACCGAGATTCCGGAGTCACCTAGTGCAG,27900 fluorescence intensity (a.u.)
8,GATGTTTGGTCCATGTAGCCACGCAATATTCTTCGATATTCGGAGTCACCTAGTGCAG,4560 fluorescence intensity (a.u.)
9,GACACGGTTGAGTGCACGACTACACGAGTGACGTGAGTCTCGGAGTCACCTAGTGCAG,4040 fluorescence intensity (a.u.)
10,ATCAGATTTACCGGCGTATCTTGACGGCCACGTCAGTCCCCGGAGTCACCTAGTGCAG,19100 fluorescence intensity (a.u.)
11,TGTTTCTCCAGTCTCCACATCACTGCGTGTCTGCGTCGCCCGGAGTCACCTAGTGCAG,8530 fluorescence intensity (a.u.)
12,GTTTAGATGGTGGTTTTGGCTGACGTGTCACCTACGTGGCCGGAGTCACCTAGTGCAG,24200 fluorescence intensity (a.u.)
13,GCGTGCCGAAGGTGTGTCCCCTGCACCGGCTCCGGCAGGTCGGAGTCACCTAGTGCAG,9960 fluorescence intensity (a.u.)
14,GACGCCGCCAACGCCACGCTCTGGTCCTCCTTCGACCACCCGGAGTCACCTAGTGCAG,3560 fluorescence intensity (a.u.)
15,TCCTCTCGCCGCCGCCGCGTCCGCTCCACCCGGCGGCGGACGGAGTCACCTAGTGCAG,3450 fluorescence intensity (a.u.)
16,GCGCAAGTGCACGTACGAAAATGACAGCGAGTGAGGTGGCCGGAGTCACCTAGTGCAG,3790 fluorescence intensity (a.u.)
17,AGACTGACAGGTGGGCCATGCGCCACGCACGTGCCACTGACGGAGTCACCTAGTGCAG,3960 fluorescence intensity (a.u.)
18,TCCCAATATGACGTCGGAATGGTGCTGTCTATGTCTACTCCGGAGTCACCTAGTGCAG,5450 fluorescence intensity (a.u.)
19,ATATGCTCATAGGGGTAGGGTTTGCGTGCGTGTGTTTATACGGAGTCACCTAGTGCAG,3470 fluorescence intensity (a.u.)
20,CCCAGCCTCCATCACCCAGTCCACCTCCCCACCTCCGCCGCGGAGTCACCTAGTGCAG,3940 fluorescence intensity (a.u.)
21,TCCACATGCATATATGCATGACACAGCAAAATATATGTTACGGAGTCACCTAGTGCAG,4980 fluorescence intensity (a.u.)
22,TATGTAATTATTGCTAGTGGATGATGATGTGGCATGGTTGCGGAGTCACCTAGTGCAG,16600 fluorescence intensity (a.u.)
23,GCGGGGCTTCGCGACGCTGAAGTGGATAGTGATACTGCTCCGGAGTCACCTAGTGCAG,3140 fluorescence intensity (a.u.)
24,TATAGAGCACACTAACGTTATTGTTTTCACGTTGTTTCGACGGAGTCACCTAGTGCAG,14300 fluorescence intensity (a.u.)
25,CCCTCATGAGGGCGTTGTCGTGCTGTCTCACCCCTCAAGGCGGAGTCACCTAGTGCAG,3660 fluorescence intensity (a.u.)
26,TGCAGCCCAACTCGTCGTCCACCTCACACTCGCCGCAGCCCGGAGTCACCTAGTGCAG,5450 fluorescence intensity (a.u.)
27,GATGCGCCACTGGTTGACCTGTTCTTTGTCGAACATGTTGCGGAGTCACCTAGTGCAG,3920 fluorescence intensity (a.u.)
